For assay [1], the target named is GST fusion to Xenopus laevis CENP-A amino terminus (amino acids 1–50) (Xenopus laevis) (UniProt Q569M3). As to the kind of experiment: pull-down; affinity chromatography: GST-tail fusions coupled to Affigel-10; clarified mitotic Xenopus egg extract, pre-passed over immobilised GST, in 50 mM HEPES pH 7.7, 100 mM KCl; elution with 100 mM steps of KCl; only the target purified.

Protein sequences, listed by entry. Tags and fused reporters are not part of them. Lines headed by an entry give the natural chain unless they say otherwise; changes in a name come on top. Residues count along the entry.
UniProt Q569M3, residues 1-50: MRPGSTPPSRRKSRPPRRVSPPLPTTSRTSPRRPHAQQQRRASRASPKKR
UniProt Q9W7I5: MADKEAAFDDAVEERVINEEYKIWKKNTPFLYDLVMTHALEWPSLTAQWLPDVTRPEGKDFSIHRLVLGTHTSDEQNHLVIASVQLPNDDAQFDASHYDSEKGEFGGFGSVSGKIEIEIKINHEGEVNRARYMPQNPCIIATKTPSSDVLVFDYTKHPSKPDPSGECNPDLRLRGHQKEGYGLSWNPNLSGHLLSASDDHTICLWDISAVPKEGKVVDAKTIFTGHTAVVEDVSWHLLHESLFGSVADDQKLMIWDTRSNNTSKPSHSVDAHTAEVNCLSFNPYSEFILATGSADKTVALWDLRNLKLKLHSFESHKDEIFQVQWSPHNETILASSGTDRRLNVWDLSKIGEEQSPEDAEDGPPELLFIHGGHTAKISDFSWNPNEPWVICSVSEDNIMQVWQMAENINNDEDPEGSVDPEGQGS
UniProt O93377: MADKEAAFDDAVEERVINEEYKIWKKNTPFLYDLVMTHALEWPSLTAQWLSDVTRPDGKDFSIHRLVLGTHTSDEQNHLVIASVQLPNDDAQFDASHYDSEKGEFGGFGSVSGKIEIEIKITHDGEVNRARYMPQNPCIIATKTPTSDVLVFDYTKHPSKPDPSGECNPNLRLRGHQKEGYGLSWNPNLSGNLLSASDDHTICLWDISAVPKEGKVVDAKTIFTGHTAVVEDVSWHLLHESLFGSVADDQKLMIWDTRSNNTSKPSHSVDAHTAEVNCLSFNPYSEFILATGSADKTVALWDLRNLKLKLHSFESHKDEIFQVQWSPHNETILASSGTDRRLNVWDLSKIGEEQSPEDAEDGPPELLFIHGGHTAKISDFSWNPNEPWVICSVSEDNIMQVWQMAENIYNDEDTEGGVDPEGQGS
UniProt Q6XXM1: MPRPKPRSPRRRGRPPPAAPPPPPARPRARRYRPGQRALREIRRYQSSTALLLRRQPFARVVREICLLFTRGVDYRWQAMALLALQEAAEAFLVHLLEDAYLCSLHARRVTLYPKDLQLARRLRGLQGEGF
UniProt Q8AVH1: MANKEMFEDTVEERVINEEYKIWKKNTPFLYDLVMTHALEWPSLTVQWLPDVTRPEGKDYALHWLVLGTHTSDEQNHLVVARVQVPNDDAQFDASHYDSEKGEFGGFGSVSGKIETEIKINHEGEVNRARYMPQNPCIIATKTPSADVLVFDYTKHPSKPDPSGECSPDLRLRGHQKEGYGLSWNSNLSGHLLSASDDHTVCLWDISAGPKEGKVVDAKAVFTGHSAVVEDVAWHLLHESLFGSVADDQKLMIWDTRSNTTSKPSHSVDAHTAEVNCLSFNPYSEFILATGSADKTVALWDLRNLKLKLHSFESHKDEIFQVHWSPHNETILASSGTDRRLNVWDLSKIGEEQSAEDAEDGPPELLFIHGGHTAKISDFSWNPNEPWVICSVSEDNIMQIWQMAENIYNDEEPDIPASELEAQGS

For assay [2] the target is unchanged. Description: pull-down; GST-histone tails coupled to NHS Sepharose (20 μl resin) with 0.7 μg Hat1, RbAp46 or RbAp48, or RbAp46 with Hat1, in 150 μl 20 mM K-HEPES pH 7.4, 50 mM KCl, 0.1% Tween-20, 5 mM DTT; 2 h at 4 °C; washes with 300 mM KCl; coomassie-stained gel; both purified.
Assay [3] addresses FLAG fused Y32H mutant RbAp48 (chicken) (UniProt Q9W7I5). Description: co-IP; IP with anti-FLAG antibody in RbAp48 OFF DT40 cells expressing FLAG fused wild-type or Y32H RbAp48; western blot with anti-CENP-A. For orientation: In western blotting, separated proteins are transferred to a membrane and probed.
Assay [4] concerns the target FLAG fused wild-type RbAp48 (chicken) (UniProt Q9W7I5). Described as above.
The next assay has as its target HA-RbAp48 (chicken) (UniProt Q9W7I5). Description: co-IP; IP with anti-HA or anti-HJURP antibodies in DT40 cells expressing HA-RbAp48; western blot with anti-HJURP, anti-HA, anti-CENP-A, anti-H3 and anti-H4.

Results are given in words; binding and its absence hold for the method and conditions named. For part of these data: In cells and extracts the contact can be indirect. Some results given as binding are weak or reduced against the parent protein; the word gives no strength.

With “Xenopus RbAp48 (endogenous in egg extract) (from UniProt O93377 1-425)”, the binding entry in assay [1] was “binds”.
For the substance “Flag RbAp48 (Xenopus, recombinant) (from UniProt O93377 1-425)”, in assay [2], the binding result was “binds”.
With “CENP-A (chicken, endogenous in DT40 cells) (from UniProt Q6XXM1 1-131)”, the binding result (in assay [3]; in assay [4]; with HA-RbAp48 (chicken)) was “binds” each time.
In the case of “Xenopus RbAp46 (endogenous in egg extract) (from UniProt Q8AVH1 1-425)”, the binding result in assay [1] is reported as “binds”.

The values above are taken from paper PMC5097169.
